In this assay the target is holo-transferrin (UniProt Q29443). Kind of assay: pull-down; holo-Tf conjugated beads; lysates of TfR RNAi cells, un-induced (tet -) or induced (tet +), at time points; detection by anti-TfR blot; only the target purified.

Sequences of proteins named here, by UniProt entry; tags and fusion partners are left off. A change or cut given only in a name is not applied to a line headed by its entry. Residues count along the entry.
UniProt Q29443, residues 20-704: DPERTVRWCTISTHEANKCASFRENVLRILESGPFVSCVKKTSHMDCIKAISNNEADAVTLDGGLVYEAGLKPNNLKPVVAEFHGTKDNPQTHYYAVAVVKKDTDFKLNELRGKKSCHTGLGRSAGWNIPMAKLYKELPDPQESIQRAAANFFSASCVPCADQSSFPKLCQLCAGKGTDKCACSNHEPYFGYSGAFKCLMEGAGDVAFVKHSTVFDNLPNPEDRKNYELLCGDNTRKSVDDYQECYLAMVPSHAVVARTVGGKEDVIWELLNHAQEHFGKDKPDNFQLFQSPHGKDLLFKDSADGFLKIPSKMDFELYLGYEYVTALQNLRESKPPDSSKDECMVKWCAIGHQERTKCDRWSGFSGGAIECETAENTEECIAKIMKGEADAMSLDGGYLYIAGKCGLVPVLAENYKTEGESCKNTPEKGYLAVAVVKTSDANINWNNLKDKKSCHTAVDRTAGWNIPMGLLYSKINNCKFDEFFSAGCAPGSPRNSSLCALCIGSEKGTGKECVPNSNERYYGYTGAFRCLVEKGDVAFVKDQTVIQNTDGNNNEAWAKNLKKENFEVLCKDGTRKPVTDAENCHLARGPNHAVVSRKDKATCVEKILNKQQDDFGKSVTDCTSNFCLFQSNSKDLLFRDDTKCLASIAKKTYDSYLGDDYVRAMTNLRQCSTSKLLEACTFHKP
UniProt Q8WPU1: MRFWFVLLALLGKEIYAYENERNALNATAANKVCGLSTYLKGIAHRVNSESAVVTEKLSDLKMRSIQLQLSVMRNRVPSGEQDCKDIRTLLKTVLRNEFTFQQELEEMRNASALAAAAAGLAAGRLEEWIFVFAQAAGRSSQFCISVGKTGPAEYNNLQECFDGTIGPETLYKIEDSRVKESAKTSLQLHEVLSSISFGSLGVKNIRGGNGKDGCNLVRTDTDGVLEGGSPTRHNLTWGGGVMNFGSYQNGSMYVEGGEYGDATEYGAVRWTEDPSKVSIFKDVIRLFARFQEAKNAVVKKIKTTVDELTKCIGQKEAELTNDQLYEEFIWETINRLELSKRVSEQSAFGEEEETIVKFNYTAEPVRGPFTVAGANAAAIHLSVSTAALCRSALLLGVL

These are yes or no findings as the source states them, for the method shown. Binding seen in cells or lysates may run through a third protein. Some binding calls cover weakened binding; strength is not graded here.

“Trypanosoma brucei transferrin receptor (TfR), heterodimer of ESAG6 and ESAG7 (from UniProt Q8WPU1 18-376; Q8WPU2 18-338) (complex)”: the binding entry is given as “binds”.

The values above are taken from publication PMC8259959.
